Test results from patent publication US6066642A, “Dihydropyridine-, pyridine-, benzopyran-4-one- and triazoloquinazoline derivative, their preparation and their use as adenosine receptor antagonists” (priority 1998, dated 2000).

Biological target: T1, A1 receptors (Rattus norvegicus, UniProt P25099)
T1 sequence (P25099 1-326): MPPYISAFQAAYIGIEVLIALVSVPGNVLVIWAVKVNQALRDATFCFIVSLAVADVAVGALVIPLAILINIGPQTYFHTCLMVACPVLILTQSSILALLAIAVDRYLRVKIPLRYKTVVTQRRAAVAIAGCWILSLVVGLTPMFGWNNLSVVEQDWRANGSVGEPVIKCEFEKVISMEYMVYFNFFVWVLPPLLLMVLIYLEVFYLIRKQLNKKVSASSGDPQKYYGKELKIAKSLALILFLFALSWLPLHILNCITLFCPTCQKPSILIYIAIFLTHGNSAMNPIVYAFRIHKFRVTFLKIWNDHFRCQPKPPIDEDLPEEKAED
Assay type: binding

With COC(=O)C1=C(C)NC(C)=C(C(=O)OC)C1c1ccccc1[N+](=O)[O-] [Compound 60, nifedipine, reference compound] the “greater affinity to A1 than A2a adenosine receptors” value was “greater affinity to A1 adenosine receptors than A2a receptors” and the Ki (read-out: Ki rA1) was 2.89 µM.
